Values of other authors as cited in patent US9186422B2, “Radio-opaque compounds, compositions containing same and methods of their synthesis and use” (Pathak Holdings LLC, priority 2003, dated 2015).
Some results were stated once for a whole list of compounds, not compound by compound.

Settings: recent small clinical study, two non-ionic media compared

CC(=O)N(CC(O)CO)c1c(I)c(C(N)=O)c(I)c(C(=O)N(CC(O)CO)CC(O)CO)c1I (stereo not shown) [Iohexyl, 5-[N-(2,3-Dihydroxypropyl)acetamido]-2,4,6-triiodo-N,N-bis(2,3-dihydroxypropyl)isophthalamide]
patients reporting adverse events (mild to moderate to severe): More than 10%
